Experimental data reported in ChEMBL document CHEMBL2069199, “Development of isoform selective PI3-kinase inhibitors as pharmacological tools for elucidating the PI3K pathway” (Bioorg Med Chem Lett, 2012).

Amino acid sequences for entries named in this document (tags omitted). A change or cut given only in a name is not applied to a line headed by its entry.
UniProt P48736: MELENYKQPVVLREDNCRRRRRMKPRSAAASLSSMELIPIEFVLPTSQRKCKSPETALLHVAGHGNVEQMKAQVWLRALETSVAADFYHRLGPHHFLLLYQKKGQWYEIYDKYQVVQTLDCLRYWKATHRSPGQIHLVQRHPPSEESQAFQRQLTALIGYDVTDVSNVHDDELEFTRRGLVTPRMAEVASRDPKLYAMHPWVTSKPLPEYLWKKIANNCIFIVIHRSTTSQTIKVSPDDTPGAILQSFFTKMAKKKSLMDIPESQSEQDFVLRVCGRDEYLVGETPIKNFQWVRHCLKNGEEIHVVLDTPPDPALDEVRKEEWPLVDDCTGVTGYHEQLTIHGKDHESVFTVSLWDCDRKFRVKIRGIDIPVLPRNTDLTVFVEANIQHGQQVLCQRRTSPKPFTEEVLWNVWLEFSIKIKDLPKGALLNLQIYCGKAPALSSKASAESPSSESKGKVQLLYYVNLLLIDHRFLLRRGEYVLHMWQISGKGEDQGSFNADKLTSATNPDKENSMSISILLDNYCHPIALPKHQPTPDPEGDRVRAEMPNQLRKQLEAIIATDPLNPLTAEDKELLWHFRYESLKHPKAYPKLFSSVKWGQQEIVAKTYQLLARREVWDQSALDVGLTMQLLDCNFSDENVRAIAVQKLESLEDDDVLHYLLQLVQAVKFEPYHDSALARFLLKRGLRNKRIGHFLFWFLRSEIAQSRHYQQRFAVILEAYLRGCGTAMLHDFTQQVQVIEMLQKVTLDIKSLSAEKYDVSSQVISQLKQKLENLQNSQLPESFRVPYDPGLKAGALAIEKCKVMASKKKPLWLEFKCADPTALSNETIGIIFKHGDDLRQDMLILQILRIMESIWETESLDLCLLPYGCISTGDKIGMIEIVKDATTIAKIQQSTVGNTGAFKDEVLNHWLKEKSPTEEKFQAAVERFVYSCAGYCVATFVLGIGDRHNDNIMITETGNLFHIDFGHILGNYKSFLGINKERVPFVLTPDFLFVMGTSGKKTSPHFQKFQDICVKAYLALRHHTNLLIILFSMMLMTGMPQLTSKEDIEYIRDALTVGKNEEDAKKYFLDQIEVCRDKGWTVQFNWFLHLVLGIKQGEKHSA

Molecular target: Phosphatidylinositol 4,5-bisphosphate 3-kinase catalytic subunit gamma isoform (Homo sapiens, UniProt P48736)

Ki: 0.036 µM
Structure (SMILES): CCn1nnc(CCNC(=O)Nc2nc(C)c(-c3ccc(S(C)(=O)=O)c(F)c3)s2)n1
